For one molecule, binding results are on record in PMC4519142.

These are yes or no findings as the source states them, for the method shown. Some entries that bind do so weakly or less than the wild type. Where a sequence is shown, tags or fusion partners need not be part of it.

For this test, the target named is T1, PDZD7 (yeast two-hybrid fusion) (UniProt Q9H5P4).
T1 sequence: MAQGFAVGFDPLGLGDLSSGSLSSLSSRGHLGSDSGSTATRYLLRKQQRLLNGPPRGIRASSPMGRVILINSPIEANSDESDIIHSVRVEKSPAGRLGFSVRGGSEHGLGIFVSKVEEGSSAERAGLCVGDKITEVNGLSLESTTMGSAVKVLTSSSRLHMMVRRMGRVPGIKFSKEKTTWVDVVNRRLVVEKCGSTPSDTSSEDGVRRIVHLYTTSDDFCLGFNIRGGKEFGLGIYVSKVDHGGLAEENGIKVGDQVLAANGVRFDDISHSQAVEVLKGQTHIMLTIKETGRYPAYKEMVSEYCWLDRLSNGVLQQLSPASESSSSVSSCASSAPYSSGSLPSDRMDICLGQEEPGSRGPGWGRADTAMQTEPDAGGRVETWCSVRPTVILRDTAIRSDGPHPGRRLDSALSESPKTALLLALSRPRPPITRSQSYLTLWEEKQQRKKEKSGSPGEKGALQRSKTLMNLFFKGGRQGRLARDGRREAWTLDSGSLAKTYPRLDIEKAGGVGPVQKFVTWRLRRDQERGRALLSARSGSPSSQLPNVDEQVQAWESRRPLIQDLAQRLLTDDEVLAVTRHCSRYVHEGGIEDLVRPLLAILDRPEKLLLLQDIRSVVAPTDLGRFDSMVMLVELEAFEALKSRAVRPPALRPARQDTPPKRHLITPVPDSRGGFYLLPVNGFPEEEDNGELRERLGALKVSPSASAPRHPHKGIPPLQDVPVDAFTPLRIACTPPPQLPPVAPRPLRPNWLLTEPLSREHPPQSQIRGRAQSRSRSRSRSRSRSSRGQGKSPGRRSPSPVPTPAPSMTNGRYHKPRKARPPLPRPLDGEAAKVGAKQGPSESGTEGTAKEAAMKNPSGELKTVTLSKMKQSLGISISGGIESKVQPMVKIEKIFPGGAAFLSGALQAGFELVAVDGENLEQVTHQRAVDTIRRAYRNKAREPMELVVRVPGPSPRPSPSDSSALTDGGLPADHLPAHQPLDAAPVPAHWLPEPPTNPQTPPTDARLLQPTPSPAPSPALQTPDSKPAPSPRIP
Description: two-hybrid; dedicated yeast two-hybrid screen of 200 (predicted) ciliary proteins.

B1: IFT57 (protein, UniProt Q9NWB7 1-429)
chain: MTAALAVVTTSGLEDGVPRSRGEGTGEVVLERGPGAAYHMFVVMEDLVEKLKLLRYEEEFLRKSNLKAPSRHYFALPTNPGEQFYMFCTLAAWLINKAGRPFEQPQEYDDPNATISNILSELRSFGRTADFPPSKLKSGYGEHVCYVLDCFAEEALKYIGFTWKRPIYPVEELEEESVAEDDAELTLNKVDEEFVEEETDNEENFIDLNVLKAQTYHLDMNETAKQEDILESTTDAAEWSLEVERVLPQLKVTIRTDNKDWRIHVDQMHQHRSGIESALKETKGFLDKLHNEITRTLEKISSREKYINNQLENLVQEYRAAQAQLSEAKERYQQGNGGVTERTRLLSEVMEELEKVKQEMEEKGSSMTDGAPLVKIKQSLTKLKQETVEMDIRIGIVEHTLLQSKLKEKSNMTRNMHATVIPEPATGFY
As for B1, the binding result is “binds”.
